From article PMC7999107

By UniProt entry, the sequences of proteins in these tests, tags left out. Where a name states a change or a piece, a line headed by the entry shows the natural chain unless it says otherwise.
UniProt B2RWS6: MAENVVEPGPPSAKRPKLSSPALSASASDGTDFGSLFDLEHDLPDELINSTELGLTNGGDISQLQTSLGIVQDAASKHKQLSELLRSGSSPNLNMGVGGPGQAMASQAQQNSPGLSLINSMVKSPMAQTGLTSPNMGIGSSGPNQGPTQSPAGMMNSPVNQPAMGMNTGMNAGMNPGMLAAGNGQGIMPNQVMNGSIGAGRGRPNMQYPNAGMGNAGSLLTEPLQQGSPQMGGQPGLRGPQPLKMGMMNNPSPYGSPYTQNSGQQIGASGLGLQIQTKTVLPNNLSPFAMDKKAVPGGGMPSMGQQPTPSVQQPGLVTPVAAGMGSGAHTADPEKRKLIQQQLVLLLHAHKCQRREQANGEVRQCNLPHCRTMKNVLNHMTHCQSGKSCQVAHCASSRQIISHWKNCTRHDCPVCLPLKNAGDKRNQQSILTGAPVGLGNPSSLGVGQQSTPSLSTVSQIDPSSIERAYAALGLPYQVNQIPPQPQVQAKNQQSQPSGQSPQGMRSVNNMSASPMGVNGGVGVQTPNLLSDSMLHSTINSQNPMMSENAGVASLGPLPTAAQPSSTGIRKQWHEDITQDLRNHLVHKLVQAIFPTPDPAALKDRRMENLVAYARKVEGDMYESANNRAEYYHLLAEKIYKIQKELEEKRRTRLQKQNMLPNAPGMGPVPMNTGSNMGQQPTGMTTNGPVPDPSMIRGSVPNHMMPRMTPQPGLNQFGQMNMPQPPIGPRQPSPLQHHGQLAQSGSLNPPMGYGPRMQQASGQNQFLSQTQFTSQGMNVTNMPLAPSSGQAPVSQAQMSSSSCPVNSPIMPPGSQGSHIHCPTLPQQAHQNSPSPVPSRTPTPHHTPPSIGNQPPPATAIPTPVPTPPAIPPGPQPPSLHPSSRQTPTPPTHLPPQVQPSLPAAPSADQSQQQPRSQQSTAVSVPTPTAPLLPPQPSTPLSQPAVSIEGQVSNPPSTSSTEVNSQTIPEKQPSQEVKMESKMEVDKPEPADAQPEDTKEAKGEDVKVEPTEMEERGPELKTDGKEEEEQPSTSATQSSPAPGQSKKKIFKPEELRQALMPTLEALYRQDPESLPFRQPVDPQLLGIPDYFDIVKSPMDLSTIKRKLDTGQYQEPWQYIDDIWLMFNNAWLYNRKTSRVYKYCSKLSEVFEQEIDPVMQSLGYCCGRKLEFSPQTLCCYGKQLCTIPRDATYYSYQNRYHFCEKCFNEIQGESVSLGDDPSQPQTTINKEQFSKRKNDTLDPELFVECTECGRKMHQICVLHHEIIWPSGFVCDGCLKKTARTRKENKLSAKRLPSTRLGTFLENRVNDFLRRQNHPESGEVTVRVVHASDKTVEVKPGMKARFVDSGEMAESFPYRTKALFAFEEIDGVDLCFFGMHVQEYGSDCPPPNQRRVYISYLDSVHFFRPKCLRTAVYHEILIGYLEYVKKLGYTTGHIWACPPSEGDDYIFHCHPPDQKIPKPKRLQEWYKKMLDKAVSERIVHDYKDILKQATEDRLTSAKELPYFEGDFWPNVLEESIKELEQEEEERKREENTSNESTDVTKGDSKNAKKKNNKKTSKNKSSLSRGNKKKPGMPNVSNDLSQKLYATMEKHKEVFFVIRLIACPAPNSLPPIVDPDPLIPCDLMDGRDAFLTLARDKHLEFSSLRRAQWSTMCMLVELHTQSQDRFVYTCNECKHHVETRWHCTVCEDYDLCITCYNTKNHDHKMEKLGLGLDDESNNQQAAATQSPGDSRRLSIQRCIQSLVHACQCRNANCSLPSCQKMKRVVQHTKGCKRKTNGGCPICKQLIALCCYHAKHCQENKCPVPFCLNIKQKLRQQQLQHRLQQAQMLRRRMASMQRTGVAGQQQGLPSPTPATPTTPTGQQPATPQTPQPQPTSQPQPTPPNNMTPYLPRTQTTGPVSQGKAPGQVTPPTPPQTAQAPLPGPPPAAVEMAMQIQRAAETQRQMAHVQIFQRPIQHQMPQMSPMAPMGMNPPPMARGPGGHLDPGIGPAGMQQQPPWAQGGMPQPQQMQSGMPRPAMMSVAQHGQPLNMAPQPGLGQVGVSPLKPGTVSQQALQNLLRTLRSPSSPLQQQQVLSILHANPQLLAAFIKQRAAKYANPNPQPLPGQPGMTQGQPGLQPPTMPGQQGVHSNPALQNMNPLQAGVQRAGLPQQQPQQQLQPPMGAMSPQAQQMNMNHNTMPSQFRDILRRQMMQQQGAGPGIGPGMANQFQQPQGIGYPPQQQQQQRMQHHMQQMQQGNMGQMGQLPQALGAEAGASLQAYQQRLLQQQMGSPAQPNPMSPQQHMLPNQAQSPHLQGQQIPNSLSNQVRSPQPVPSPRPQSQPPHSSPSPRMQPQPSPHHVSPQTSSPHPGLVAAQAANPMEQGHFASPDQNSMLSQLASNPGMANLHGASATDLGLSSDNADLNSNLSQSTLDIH
UniProt P45481: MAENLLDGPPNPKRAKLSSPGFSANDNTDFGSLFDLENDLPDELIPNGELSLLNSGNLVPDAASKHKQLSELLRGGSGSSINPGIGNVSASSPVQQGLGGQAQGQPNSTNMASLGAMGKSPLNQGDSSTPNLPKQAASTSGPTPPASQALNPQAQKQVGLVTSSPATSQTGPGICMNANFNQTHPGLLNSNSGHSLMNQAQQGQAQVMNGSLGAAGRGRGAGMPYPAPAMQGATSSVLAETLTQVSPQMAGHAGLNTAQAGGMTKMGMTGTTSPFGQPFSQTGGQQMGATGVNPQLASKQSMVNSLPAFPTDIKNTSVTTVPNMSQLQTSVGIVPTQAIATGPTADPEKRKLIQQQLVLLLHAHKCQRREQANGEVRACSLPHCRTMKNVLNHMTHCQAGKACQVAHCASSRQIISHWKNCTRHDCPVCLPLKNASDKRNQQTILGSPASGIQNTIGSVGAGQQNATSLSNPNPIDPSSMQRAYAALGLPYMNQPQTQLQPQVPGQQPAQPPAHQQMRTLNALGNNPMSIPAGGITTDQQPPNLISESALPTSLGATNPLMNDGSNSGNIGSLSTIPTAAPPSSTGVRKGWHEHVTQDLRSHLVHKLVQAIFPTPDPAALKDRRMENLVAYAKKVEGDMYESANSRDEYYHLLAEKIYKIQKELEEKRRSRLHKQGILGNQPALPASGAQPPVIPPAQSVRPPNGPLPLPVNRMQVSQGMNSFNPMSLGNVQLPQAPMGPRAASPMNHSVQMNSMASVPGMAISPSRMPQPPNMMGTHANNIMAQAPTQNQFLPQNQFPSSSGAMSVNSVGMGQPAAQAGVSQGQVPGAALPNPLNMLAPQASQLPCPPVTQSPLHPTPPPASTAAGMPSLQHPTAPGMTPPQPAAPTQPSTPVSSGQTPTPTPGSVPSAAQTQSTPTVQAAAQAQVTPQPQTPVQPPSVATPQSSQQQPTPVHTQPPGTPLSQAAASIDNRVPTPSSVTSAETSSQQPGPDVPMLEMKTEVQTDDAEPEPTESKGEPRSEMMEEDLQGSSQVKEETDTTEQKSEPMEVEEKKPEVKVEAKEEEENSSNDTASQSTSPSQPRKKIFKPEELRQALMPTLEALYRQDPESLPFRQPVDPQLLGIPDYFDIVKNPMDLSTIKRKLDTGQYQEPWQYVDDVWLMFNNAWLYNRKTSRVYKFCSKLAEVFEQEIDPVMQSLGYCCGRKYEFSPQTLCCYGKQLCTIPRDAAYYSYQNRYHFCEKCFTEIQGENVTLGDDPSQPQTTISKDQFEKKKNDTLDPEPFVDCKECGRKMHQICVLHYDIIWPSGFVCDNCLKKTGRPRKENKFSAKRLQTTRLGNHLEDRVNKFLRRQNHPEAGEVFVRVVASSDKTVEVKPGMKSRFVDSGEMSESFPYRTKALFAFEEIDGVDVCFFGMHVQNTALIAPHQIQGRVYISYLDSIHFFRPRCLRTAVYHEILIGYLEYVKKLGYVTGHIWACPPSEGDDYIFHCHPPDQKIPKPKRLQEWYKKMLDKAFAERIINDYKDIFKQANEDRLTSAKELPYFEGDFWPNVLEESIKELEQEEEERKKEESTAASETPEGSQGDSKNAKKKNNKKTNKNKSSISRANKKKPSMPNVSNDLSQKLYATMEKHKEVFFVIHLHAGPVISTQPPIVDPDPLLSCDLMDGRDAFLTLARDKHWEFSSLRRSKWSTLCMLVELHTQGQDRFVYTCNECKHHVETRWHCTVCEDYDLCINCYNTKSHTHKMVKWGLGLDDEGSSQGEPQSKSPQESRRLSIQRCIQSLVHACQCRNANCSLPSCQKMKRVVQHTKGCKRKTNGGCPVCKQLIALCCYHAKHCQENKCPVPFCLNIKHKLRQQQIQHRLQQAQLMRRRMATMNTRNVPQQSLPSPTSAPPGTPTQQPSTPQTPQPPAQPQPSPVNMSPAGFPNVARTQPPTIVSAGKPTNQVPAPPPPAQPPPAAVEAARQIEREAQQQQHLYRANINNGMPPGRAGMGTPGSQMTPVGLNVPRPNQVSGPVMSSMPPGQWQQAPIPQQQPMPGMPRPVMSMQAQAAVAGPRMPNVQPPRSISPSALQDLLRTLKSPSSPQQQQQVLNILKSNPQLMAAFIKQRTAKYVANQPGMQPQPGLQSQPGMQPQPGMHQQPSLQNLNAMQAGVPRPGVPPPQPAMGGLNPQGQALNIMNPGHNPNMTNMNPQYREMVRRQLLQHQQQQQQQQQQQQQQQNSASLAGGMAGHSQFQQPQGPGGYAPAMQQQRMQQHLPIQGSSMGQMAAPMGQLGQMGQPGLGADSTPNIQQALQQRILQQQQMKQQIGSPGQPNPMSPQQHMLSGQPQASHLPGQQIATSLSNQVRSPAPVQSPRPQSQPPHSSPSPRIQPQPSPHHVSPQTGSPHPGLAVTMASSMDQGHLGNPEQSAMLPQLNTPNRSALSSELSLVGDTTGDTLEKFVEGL
UniProt Q8C3P7: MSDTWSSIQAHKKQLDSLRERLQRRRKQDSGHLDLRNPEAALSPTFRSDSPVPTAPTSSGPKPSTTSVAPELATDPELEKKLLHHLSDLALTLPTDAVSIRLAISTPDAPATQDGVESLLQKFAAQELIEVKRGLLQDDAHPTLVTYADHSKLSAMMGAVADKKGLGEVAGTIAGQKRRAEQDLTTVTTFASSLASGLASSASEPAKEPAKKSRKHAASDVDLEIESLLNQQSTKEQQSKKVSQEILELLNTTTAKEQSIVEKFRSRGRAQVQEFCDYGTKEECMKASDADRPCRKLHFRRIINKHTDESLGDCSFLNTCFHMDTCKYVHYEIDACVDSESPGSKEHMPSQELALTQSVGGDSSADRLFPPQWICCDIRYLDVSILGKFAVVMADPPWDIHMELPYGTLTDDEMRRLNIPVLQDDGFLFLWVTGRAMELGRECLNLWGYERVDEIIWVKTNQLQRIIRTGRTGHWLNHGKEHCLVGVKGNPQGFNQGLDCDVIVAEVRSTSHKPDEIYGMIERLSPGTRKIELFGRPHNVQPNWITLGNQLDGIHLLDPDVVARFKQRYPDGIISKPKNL

Columns and labels:
Experiment in all cases: affinity purification with mass spectrometry; targeted proteomic analysis of intestinal proteins associated with CBP and/or p300 (co-IP of CBP vs. p300) in WT versus p300 S89A mice, male and female, fed or fasted
[1] = target: p300 S89A (knock-in point mutant of mouse p300) (mouse (endogenous in intestinal crypt cells)) (UniProt B2RWS6)
[2] = target: p300 (Kat3B/E1A-binding protein, 300 kDa), wild type mouse (mouse (endogenous in intestinal crypt cells)) (UniProt B2RWS6)
[3] = substrate: CBP (Kat3A/CREBBP, cAMP response element binding protein (CREB)-binding protein) (mouse (endogenous in intestinal crypt cells)) (UniProt P45481)

**Q.** For “N6 methyl adenosine 70 kDa subunit Mettl3 (from UniProt Q8C3P7 1-580)”, which binding [1] is on record?
**A.** binds

B1: aryl hydrocarbon receptor nuclear translocator-like protein 2 (Bmal2) (protein, UniProt Q2VPD4 1-579)
chain: MEFPRKRRGRDSQPLQSEFMTDTTVESLPQNPFASLLSTRTGVSAPSGIREAHSQMEKRRRDKMNHLIQKLSSMIPPHIPTAHKLDKLSVLRRAVQYLRSLRGMTELYLGENSKPSFIQDKELSHLILKAAEGFLFVVGCERGRIFYVSKSVSKTLRYDQASLIGQNLFDFLHPKDVAKVKEQLSCDGSPREKPIDTKTSQVYSHPYTGRPRMHSGSRRSFFFRMKSCTVPVKEEQPCSSCSKKKDHRKFHTVHCTGYLRSWPLNVVGMEKESGGGKDSGPLTCLVAMGRLHPYIVPQKSGKINVRPAEFITRFAMNGKFVYVDQRATAILGYLPQELLGTSCYEYFHQDDHSSLTDKHKAVLQSKEKILTDSYKFRVKDGAFVTLKSEWFSFTNPWTKELEYIVSVNTLVLGRSETRLSLLHCGGSSQSSEDSFRQSCINVPGVSTGTVLGAGSIGTDIANEVLSLQRLHSSSPEDASPSEEVRDDCSVNGGNAYGPASTREPFAVSPSETEVLEAARQHQSTEPAHPHGPLPGDSAQLGFDVLCDSDSIDMAAFMNYLEAEGGLGDPGDFSDIQWAL
**Q.** B1 was tested. Which binding [2] did it give?
**A.** binds

**Q.** What about the binding [1] of the same molecule?
**A.** binds

**Q.** What about the binding [3] of the same molecule?
**A.** binds

Results are given in words; binding and its absence hold for the method and conditions named. Binding seen in cells or lysates may run through a third protein. These calls come from enrichment with a bait or labelling near it, and not all partners need be listed.
